At least one compound was matched to its structure with a doubt left.
Test system: U87-MG
Assay: In vivo combination of 224G11 and Temozolomide on U87MG xenograft model
Parameters: species or system Athymic nude mice
Conditions: D22 to D32; Temozolomide 5 mg/kg i.p.
Method: U87-MG cells from ATCC were routinely cultured in DMEM medium, 10% FCS, 1% L-Glutamine. Cells were split two days before engraftment being in exponential phase of growth. Five million U87-MG cells were engrafted to Athymic nude mice. […] Mice were treated i.p. either with a loading dose of 2 mg of 224G11 Mab/mouse and then twice a week with 1 mg of antibody/mouse or with 3 injections of Temozolomide (D19, D26, D33) at 5 mg/kg. A third group administered with the combine treatment was also included. Temozolomide was given by i.p. injections. Tumor volume was measured twice a week and calculated by the formula: π/6×length×width×height and animal weights were monitored every day over the period of Temozolomide treatment. Statistical analysis was performed at each measured time using either a t-test or a Mann-Whitney test. […] Results are represented in FIG. 48.

Cn1nnc2c(C(N)=O)ncn2c1=O [Temozolomide, reference compound]
anti-tumor activity compared to the control group: significant anti-tumor activity

Reference: US8871909B2, “Antibodies inhibiting c-Met dimerization and uses thereof” (Pierre Fabre Medicament, priority 2007, dated 2014)
